Cleaved PARP after 72 h of treatment

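The test systems are human melanoma cell lines, treated with a pair of drugs for 72 h and then stained and imaged. Each value is the cleaved-PARP-positive fraction of nuclei relative to DMSO-treated wells, in %, so that 100 equals the control and higher values mean more apoptosis. Concentrations were fixed for each drug; these are the higher of two levels. No replicate spread is given; individual values may be noisy. Basal and induced levels differ widely between cell lines.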
This is part of the screen, not chosen by result.

Drugs:
enzastaurin (4000 nM): Cn1cc(C2=C(c3cn(C4CCN(Cc5ccccn5)CC4)c4ccccc34)C(=O)NC2=O)c2ccccc21
PD173074 (500 nM): CCN(CC)CCCCNc1ncc2cc(-c3cc(OC)cc(OC)c3)c(NC(=O)NC(C)(C)C)nc2n1
GW441756 (2000 nM): Cn1cc(/C=C2\C(=O)Nc3cccnc32)c2ccccc21
crizotinib (1000 nM): C[C@@H](Oc1cc(-c2cnn(C3CCNCC3)c2)cnc1N)c1c(Cl)ccc(F)c1Cl
embelin (6000 nM): CCCCCCCCCCCC1=C(O)C(=O)C=C(O)C1=O
NVP-BEZ235 (20 nM): Cn1c(=O)n(-c2ccc(C(C)(C)C#N)cc2)c2c3cc(-c4cnc5ccccc5c4)ccc3ncc21
OSU-03012 (5000 nM): NCC(=O)Nc1ccc(-n2nc(C(F)(F)F)cc2-c2ccc3c(ccc4ccccc43)c2)cc1
vorinostat (400 nM): O=C(CCCCCCC(=O)Nc1ccccc1)NO
AZD7762 (100 nM): NC(=O)Nc1cc(-c2cccc(F)c2)sc1C(=O)N[C@H]1CCCNC1
LFM-A13 (10000 nM): C/C(O)=C(\C#N)C(=O)Nc1cc(Br)ccc1Br

Combination	WM115
embelin + enzastaurin	85.5
PD173074 + AZD7762	132
GW441756 + crizotinib	128
LFM-A13 + PD173074	45.3
crizotinib + PD173074	110
embelin + LFM-A13	126
vorinostat + enzastaurin	81.1
GW441756 + PD173074	71.8
LFM-A13 + AZD7762	61.4
enzastaurin + OSU-03012	160
OSU-03012 + GW441756	117
vorinostat + GW441756	112
LFM-A13 + NVP-BEZ235	64.6
GW441756 + NVP-BEZ235	95.4
OSU-03012 + embelin	39.7
crizotinib + AZD7762	232
vorinostat + crizotinib	878
NVP-BEZ235 + enzastaurin	87.0
NVP-BEZ235 + AZD7762	191
LFM-A13 + OSU-03012	62.8
enzastaurin + LFM-A13	56.5
OSU-03012 + AZD7762	686
NVP-BEZ235 + crizotinib	287
crizotinib + embelin	150
vorinostat + OSU-03012	90.8
LFM-A13 + vorinostat	97.4
NVP-BEZ235 + OSU-03012	196
LFM-A13 + GW441756	134
GW441756 + enzastaurin	108
vorinostat + NVP-BEZ235	179
enzastaurin + PD173074	171
embelin + AZD7762	127
enzastaurin + AZD7762	304
OSU-03012 + PD173074	152
enzastaurin + crizotinib	719
GW441756 + embelin	206
embelin + NVP-BEZ235	96.4
embelin + PD173074	84.2
PD173074 + NVP-BEZ235	34.7
crizotinib + LFM-A13	171

The first 4 entries again:

* embelin + enzastaurin : WM115: 85.5
* PD173074 + AZD7762 : WM115: 132
* GW441756 + crizotinib : WM115: 128
* LFM-A13 + PD173074 : WM115: 45.3

Source: doi:10.1371/journal.pone.0140310, primary screening data, rounded.